Measurements taken from patent US20250066425A1 (priority 2022, published 2025).

Assay: peptide synthesis
Conditions: whole synthesis

## RKKRRQRRRFQGQYFHSRQYKHPVGYEGK
  final HPLC purity: 95.694%

No end group written: not given here.
